Source: US7022677B1, “Amide derivatives as growth hormone secretagogues” (Kaken Pharmaceutical Co., Ltd., priority 1999, dated 2006)
Where a name gives a salt, the structure may show the parent alone. Some of these results come from one statement about several compounds together. Numbered stars: 1 amine (or outer) side, 2 acyl side, 3 side chain; on linkers, the order of the positions; unused ones are H or OH. Square brackets hold non-standard residues; d marks the D form. Peptide text beside a SMILES is read from it. * marks the point of attachment. ξ: configuration not given here. d2Nal = N[C@H](Cc1ccc2ccccc2c1)C(=O)O; Ethylenediamine = C(CN[*:2])N[*:1]; Piv = CC(C)(C)C(=O)*; ξP = O=C(O)C1CCCN1

Test system: Male Sprague-Dawley rats
Assay: GH-releasing activity by oral administration in rats (plasma GH by RIA)
Format: in vivo, rat
Details: 10 mg/kg orally, fasted male Sprague-Dawley rats, thirty minutes after administration

| Structure (SMILES) | Plasma GH value |
| --- | --- |
| CC(C)(C)C(=O)N1CCCC1C(=O)N[C@H](Cc1ccc2ccccc2c1)C(=O)NCCN.Cl (stereo partly shown) [Example 87] (Piv-[ξP]-[d2Nal]-Ethylenediamine) | above 10 ng/ml |
| CCCC(C)(C)C(=O)N1CCCC1C(=O)N[C@H](Cc1ccc2ccccc2c1)C(=O)NCC(O)CN.Cl (stereo partly shown) [Example 6] | above 10 ng/ml |
| CCN(CC)C(=O)N1CCCC1C(=O)N[C@H](Cc1ccc2ccccc2c1)C(=O)NCC(O)CN.Cl (stereo partly shown) [Example 17] | above 10 ng/ml |
| CCNCC(O)CNC(=O)[C@@H](Cc1ccc2ccccc2c1)NC(=O)C1CCCN1C(=O)C(C)(C)C.Cl (stereo partly shown) [Example 217] | above 10 ng/ml |
| CC(C)(C)C(=O)N1CCCC1C(=O)N[C@H](Cc1ccc2ccccc2c1)C(=O)NCC(O)CNCC1CCCO1.Cl (stereo partly shown) [Example 141] | above 10 ng/ml |
| COC(C)(C)C(=O)N1CCCC1C(=O)N[C@H](Cc1ccc2ccccc2c1)C(=O)NCCCNCC(C)(C)C.Cl (stereo partly shown) [Example 153] | above 10 ng/ml |
| CC(C)(NC(=O)Cc1ccccc1)C(=O)N[C@H](Cc1ccc2ccccc2c1)C(=O)NCC(O)CN.Cl (stereo partly shown) [Example 65] | above 10 ng/ml |
| CC(C)CNC[C@H](O)CNC(=O)[C@@H](Cc1ccc2ccccc2c1)NC(=O)C1CCCN1C(=O)C(C)(C)C.Cl (stereo partly shown) [Example 236] | above 10 ng/ml |
| CCC(CC)C(=O)N1CCCC1C(=O)N[C@H](Cc1ccc2ccccc2c1)C(=O)NCCCNC.Cl (stereo partly shown) [Example 29] | above 10 ng/ml |
| CC(C)(C)C(=O)N1CCCC1C(=O)N[C@H](Cc1ccc2ccccc2c1)C(=O)NCC(O)CNCC1CC1.Cl (stereo partly shown) [Example 125] | above 10 ng/ml |
| CC(C)C(=O)N1CCCC1C(=O)N[C@H](Cc1ccc2ccccc2c1)C(=O)NCC(O)CN.Cl (stereo partly shown) [Example 3] | above 10 ng/ml |
| CCC(CC)C(=O)N1CCCC1C(=O)N[C@H](Cc1ccc2ccccc2c1)C(=O)NCCCNCc1ccccc1.Cl (stereo partly shown) [Example 167] | above 10 ng/ml |
| CC(C)(C)C(=O)N1CCCC1C(=O)N[C@H](Cc1ccc2ccccc2c1)C(=O)NCCCN.Cl (stereo partly shown) [Example 88] | above 10 ng/ml |
| CCOC(C)(C)C(=O)N1CCCC1C(=O)N[C@H](Cc1ccc2ccccc2c1)C(=O)NCCCNCC(C)C.Cl (stereo partly shown) [Example 154] | above 10 ng/ml |
| CCC(CC)C(=O)N1CCCC1C(=O)N[C@H](Cc1ccc2ccccc2c1)C(=O)NCCNC(=O)CN (stereo partly drawn) [Example 30, N-[2-(2-Aminoacetamino)ethyl]-2(R)-[1-(2-ethylbutyryl)pyrrolidine-2(S)-carbonylamino]-3-naphthalene-2-yl-propionamide hydrochloride] | above 10 ng/ml |
| Cl.NCC(O)CNC(=O)[C@@H](Cc1ccc2ccccc2c1)NC(=O)C1CCCN1C(=O)c1ccc(F)cc1 (stereo partly shown) [Example 14] | above 10 ng/ml |
| CCCC(CCC)CNCCCNC(=O)[C@@H](Cc1ccc2ccccc2c1)NC(=O)C1CCCN1C(=O)C(C)(C)OC.Cl (stereo partly shown) [Example 224] | above 10 ng/ml |
| CCC(CC)CNCCCNC(=O)[C@@H](Cc1ccc2ccccc2c1)NC(=O)C1CCCN1C(=O)C(C)(C)OC.Cl (stereo partly shown) [Example 222] | above 10 ng/ml |
| CCC(CC)C(=O)N1CCCC1C(=O)N[C@H](Cc1ccc2ccccc2c1)C(=O)NCC(CN)OC(C)=O.Cl (stereo partly shown) [Example 38] | above 10 ng/ml |

| Structure (SMILES) | Plasma GH value |
| --- | --- |
| CC(C)(C)C(=O)N1CCCC1C(=O)N[C@H](Cc1ccc2ccccc2c1)C(=O)NCC(O)CN.Cl (stereo partly shown) [Example 4] | above 10 ng/ml |
| CC(C)(NC(=O)c1ccccc1)C(=O)N[C@H](Cc1ccc2ccccc2c1)C(=O)NCCCNCc1ccccc1 [Example 210] | above 10 ng/ml |
| CCC(CC)C(=O)N1CCCC1C(=O)N[C@H](Cc1ccc2ccccc2c1)C(=O)NCC(O)CN (stereo partly drawn) [Example 1, N-(3-Amino-2-hydroxypropyl)-2(R)-1-(2-ethylbutyryl)pyrrolidine-2(S)-carbonylamino]-3-naphthalene-2-yl-propionamide hydrochloride] | above 10 ng/ml |
| CCCC(C)(C)C(=O)N1CCCC1C(=O)N[C@H](Cc1ccc2ccccc2c1)C(=O)NCCNC(=O)C(C)(C)N.Cl (stereo partly shown) [Example 115] | above 10 ng/ml |
| CCC(CC)C(=O)N1CCCC1C(=O)N[C@H](Cc1ccc2ccccc2c1)C(=O)NCC(O)CNC[C@@H](C)OC.Cl (stereo partly shown) [Example 136] | above 10 ng/ml |
| CCC(CC)C(=O)N1CCCC1C(=O)N[C@H](Cc1ccc2ccccc2c1)C(=O)NCCNCC(C)C.Cl (stereo partly shown) [Example 143] | above 10 ng/ml |
| CCC(CC)C(=O)N1CCCC1C(=O)N[C@H](Cc1ccc2ccccc2c1)C(=O)NCCCCNCC(C)C.Cl (stereo partly shown) [Example 145] | above 10 ng/ml |
| COC(C)(C)C(=O)N1CCCC1C(=O)N[C@H](Cc1ccc2ccccc2c1)C(=O)NCC(O)CNCC(C)C.Cl (stereo partly shown) [Example 129] | above 10 ng/ml |
| CC(C)(Cl)CC(=O)NC(C)(C)C(=O)N[C@H](Cc1ccc2ccccc2c1)C(=O)NCC(O)CN.Cl (stereo partly shown) [Example 63] | above 10 ng/ml |
| CC(C)(C)CNC[C@H](O)CNC(=O)[C@@H](Cc1ccc2ccccc2c1)NC(=O)C1CCCN1C(=O)C(C)(C)C.Cl (stereo partly shown) [Example 238] | above 10 ng/ml |
| CC(C)(NC(=O)c1ccccc1)C(=O)N[C@H](Cc1ccc2ccccc2c1)C(=O)NCC(O)CN.Cl (stereo partly shown) [Example 58] | above 10 ng/ml |
| CC(C)(C)C(=O)N1CCCC1C(=O)N[C@H](Cc1ccc2ccccc2c1)C(=O)NCC(O)CNCc1ccco1 (stereo partly shown) [Example 199] | above 10 ng/ml |
| CC(C)(C)C(=O)N1CCCC1C(=O)N[C@H](Cc1ccc2ccccc2c1)C(=O)NCC(O)CNCc1ccccc1.Cl (stereo partly shown) [Example 169] | above 10 ng/ml |
| COC(C)(C)C(=O)N1C[C@H](O)CC1C(=O)N[C@H](Cc1ccc2ccccc2c1)C(=O)NCC(O)CNCC(C)C.Cl (stereo partly shown) [Example 233] | above 10 ng/ml |
| Cl.NCCCNC(=O)[C@@H](Cc1ccc2ccccc2c1)NC(=O)C1CCCN1C(=O)C1CCCC1 (stereo partly shown) [Example 93] | above 10 ng/ml |
| CCC(CC)C(=O)NC(C)(C)C(=O)N[C@H](Cc1ccc2ccccc2c1)C(=O)NCC(O)CN.Cl (stereo partly shown) [Example 54] | above 10 ng/ml |
| Cl.NCC(O)CNC(=O)[C@@H](Cc1ccc2ccccc2c1)NC(=O)C1CCN(C(=O)c2ccc(F)cc2)CC1 (stereo partly shown) [Example 42] | above 10 ng/ml |
| CCC(CC)C(=O)N1CCCC1C(=O)N[C@H](Cc1ccc2ccccc2c1)C(=O)NCC(CN)OC.Cl (stereo partly shown) [Example 108] | above 10 ng/ml |
